Earlier results, collected in patent EP0982399B1, “Thyroid hormone transporters, agonists and antagonists thereof” (Stichting tot bevordering van de wetenschap der …, priority 1998, dated 2000).
At least one read-out could not be matched to a standard name with certainty.

Test system: rat oatp1
Details: read-out: Apparent Km, Ref. 16; cited from earlier work

In the case of `O=C1OC(c2ccc(O)c(S(=O)(=O)O)c2)(c2ccc(O)c(S(=O)(=O)O)c2)c2c(Br)c(Br)c(Br)c(Br)c21` [bromosulfophthalein], the Km is listed as 1500 µM.
